These are yes or no findings as the source states them, for the method shown. For part of these data: In cells and extracts the contact can be indirect. Some results given as binding are weak or reduced against the parent protein; the word gives no strength.
T1: M. kandleri AV19 DNA polymerase family B (Mka PolB) (MK1039) (Methanopyrus kandleri AV19)
T1 sequence: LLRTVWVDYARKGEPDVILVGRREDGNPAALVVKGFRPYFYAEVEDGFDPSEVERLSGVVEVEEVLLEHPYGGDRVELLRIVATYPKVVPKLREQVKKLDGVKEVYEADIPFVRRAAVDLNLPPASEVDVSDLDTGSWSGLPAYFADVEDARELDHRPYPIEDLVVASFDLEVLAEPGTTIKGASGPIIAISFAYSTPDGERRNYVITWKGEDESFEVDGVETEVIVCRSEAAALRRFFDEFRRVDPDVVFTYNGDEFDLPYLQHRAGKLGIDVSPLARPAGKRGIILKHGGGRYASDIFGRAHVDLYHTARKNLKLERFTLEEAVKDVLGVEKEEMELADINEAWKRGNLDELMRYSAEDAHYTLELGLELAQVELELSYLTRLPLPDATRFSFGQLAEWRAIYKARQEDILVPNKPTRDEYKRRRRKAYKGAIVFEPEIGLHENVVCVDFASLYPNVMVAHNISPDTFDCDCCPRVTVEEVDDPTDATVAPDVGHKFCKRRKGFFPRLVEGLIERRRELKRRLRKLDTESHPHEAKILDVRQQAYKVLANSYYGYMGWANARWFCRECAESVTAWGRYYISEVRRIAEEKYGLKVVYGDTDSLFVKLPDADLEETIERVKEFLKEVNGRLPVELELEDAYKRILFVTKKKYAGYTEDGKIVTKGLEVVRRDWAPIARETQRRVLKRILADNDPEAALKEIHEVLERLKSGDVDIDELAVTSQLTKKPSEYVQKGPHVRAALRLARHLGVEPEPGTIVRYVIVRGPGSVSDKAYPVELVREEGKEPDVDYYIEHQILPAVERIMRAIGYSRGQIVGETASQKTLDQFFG

T2: M. kandleri AV19 eukaryotic-type DNA primase p46 subunit (MK1394), short variant (Methanopyrus kandleri AV19) (UniProt Q8TVJ5)
T2 sequence: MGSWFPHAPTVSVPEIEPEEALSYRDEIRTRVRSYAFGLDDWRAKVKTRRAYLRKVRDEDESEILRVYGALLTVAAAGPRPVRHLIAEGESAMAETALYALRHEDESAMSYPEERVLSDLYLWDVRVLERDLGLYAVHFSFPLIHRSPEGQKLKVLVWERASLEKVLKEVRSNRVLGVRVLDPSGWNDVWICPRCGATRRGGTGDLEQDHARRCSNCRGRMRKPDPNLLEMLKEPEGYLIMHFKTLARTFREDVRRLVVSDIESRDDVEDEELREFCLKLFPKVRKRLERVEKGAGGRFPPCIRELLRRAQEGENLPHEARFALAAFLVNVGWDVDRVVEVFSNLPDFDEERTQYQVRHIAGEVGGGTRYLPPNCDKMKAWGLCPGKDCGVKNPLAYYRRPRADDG


Columns and labels:
[1] = target: T1, M. kandleri AV19 DNA polymerase family B (Mka PolB) (MK1039) (Methanopyrus kandleri AV19); assay: primer extension assay with and without PCNA (5.6 µM subunits), no clamp loader; indirect
[2] = target: T2, M. kandleri AV19 eukaryotic-type DNA primase p46 subunit (MK1394), short variant (Methanopyrus kandleri AV19); assay: lysates mixed about 1:1, heated at 80 °C, co-purified on Heparin-Sepharose
[3] = target: T2, M. kandleri AV19 eukaryotic-type DNA primase p46 subunit (MK1394), short variant (Methanopyrus kandleri AV19); assay: SDS-PAGE of the co-purified complex (FIG. 24)

| Binder | binding [1] | binding [2] | binding [3] |
| --- | --- | --- | --- |
| M. kandleri AV19 PCNA (MK1030), DNA polymerase sliding clamp (other) LVEFRAYQEEARYFKYAFNAAGKVVEEAPLIVTENGIVSRAMDASHIAMAVLEMPWEMFDEYEPPSDELMYGLDMEEVTRIVRRARVTDEITLEGEDEEEVIIKLGSSGYEREFRLRSIDIDDIPDEPELDFAVEVTVVPDFIQDAVRDADLVSDTVKVGAKGNTFYFKAEGERGRVIPKVQEGAEALLTFEVEEDVETAYPLDYLKDMIQAAQGAESVRIRLGQDMPLELTFRIGPAGEGKLTFYLAPRVEE | binds |  |  |
| M. kandleri AV19 eukaryotic-type DNA primase p41 subunit (MK0586) (enzyme) MDFYSPTFHSRECETAGARKMDVKTLVGEYYASLPSGVLREFVEDPSSREWAYTFLKGRDIVFTRKRRLDEVSGFLELYHSTGKFKNPKSWEGLLGWDLVIDVDAELPEEPEAFLKSLGRLLKDVVIACDELRRALGFPRPDVVNFSGSKGFHVRYFDSTVRRWLRWDLHERRGIKPGEIIQRVGRGVVWLAREGFVAGDRVRALREGLLDDSMYDLKRLIRCVGSMNVKSLLPAVPVWSREGGRWVDFRDEVLGMNDLELGCLVAHRTLTWPGRGGLGVVLSRVLDLDTDADPEDPSDFVEVWGNVMSVLGELKP |  | binds | binds |

Reference: patent US20060068386A1, “Complete genome and protein sequence of the hyperthermophile methanopyrus kandleri av19 and monophyly of archael methanogens and methods of use thereof” (priority 2002, published 2006)
